Reference: US12535491B2, “Vaccine comprising protein-targeted (PT) extracellular DNA isolated from bacterial matrix” (priority 2018, dated 2026)

Test system: heat-resistant proteins of human plasma
Experiment: LC/MS of heat-resistant proteins in plasma after exposure to proteinase K and boiling
Conditions: for Effect (N-plasma + pk vs N-plasma): change on adding proteinase K to normal plasma

PLMN_HUMAN
Effect (N-plasma + pk vs N-plasma): ↑

CO3_HUMAN [CO3_HUMAN [3]]
N-plasma + pk (LC/MS, control plasma with added proteinase K, heated at 100° C. for 5 minutes): 93 | Effect (N-plasma + pk vs N-plasma): ↑
